Assay results from publication PMC7862700.
The list shows a part of the results, in another mix than the full data. For some assays here: At the low end of the ranking the order means little. The list shows a part of the results. For some assays here: The exact form of the protein is not confirmed.

Assays:
Assay in all cases: DAPPL (digital affinity profiling via proximity ligation, sequencing)
Conditions in all cases: 10 mM Tris-HCl pH 7.5, 50 mM NaCl, 1 mM DTT, 4% glycerol, room temperature, 30 min; GST-TFs on glutathione beads, 16-mer random dsDNA library, 0.1% …; high values mean tight binding; double strand, one strand shown; scale: fold enrichment (6-mer frequency, TF over GST control)
GABPA = molecular target: T1, GABPA (UniProt Q06546)
T1 sequence: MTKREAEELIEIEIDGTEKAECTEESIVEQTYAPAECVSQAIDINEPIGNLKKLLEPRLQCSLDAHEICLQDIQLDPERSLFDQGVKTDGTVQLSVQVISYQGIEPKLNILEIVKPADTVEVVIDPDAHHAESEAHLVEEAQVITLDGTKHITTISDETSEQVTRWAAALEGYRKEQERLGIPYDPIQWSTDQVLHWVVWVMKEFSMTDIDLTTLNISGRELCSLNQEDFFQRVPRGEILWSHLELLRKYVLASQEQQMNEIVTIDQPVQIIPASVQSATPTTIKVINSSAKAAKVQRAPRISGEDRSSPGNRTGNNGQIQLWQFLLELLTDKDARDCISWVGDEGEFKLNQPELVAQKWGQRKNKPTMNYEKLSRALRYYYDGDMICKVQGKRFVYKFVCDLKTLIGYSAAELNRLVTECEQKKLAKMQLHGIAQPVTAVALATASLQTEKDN

ETS1 = molecular target: T2, ETS1 (UniProt P14921)
T2 sequence: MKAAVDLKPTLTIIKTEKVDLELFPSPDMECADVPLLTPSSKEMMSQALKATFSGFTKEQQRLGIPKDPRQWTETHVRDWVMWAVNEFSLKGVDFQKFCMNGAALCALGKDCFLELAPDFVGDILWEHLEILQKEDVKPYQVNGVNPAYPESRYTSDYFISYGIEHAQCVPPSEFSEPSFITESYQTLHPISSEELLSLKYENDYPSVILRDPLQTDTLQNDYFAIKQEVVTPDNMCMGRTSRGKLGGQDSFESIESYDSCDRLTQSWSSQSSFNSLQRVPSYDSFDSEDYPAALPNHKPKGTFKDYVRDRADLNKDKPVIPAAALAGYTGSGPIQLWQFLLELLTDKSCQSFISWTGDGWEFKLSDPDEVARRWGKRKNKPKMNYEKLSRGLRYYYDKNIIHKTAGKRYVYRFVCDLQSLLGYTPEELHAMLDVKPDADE

SPDEF = molecular target: T3, SPDEF (UniProt O95238)
T3 sequence: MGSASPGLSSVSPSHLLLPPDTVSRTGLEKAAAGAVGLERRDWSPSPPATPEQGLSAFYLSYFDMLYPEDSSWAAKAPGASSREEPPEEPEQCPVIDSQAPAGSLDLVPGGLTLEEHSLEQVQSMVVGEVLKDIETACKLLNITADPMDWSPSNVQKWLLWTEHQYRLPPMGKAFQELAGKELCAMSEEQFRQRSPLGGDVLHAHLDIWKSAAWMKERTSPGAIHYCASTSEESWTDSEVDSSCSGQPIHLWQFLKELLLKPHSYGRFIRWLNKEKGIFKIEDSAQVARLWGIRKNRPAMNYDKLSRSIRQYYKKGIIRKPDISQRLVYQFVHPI

Question: TTTATG was tested. Which binding signal (GABPA) did it give?
Answer: Its binding signal is 1.4.

Question: What about the binding signal (ETS1) of the same sequence?
Answer: Its binding signal is 1.32.

Question: With CAAAAA as the sequence, how does the binding signal (GABPA) read?
Answer: Its binding signal is 1.16.

Question: And the binding signal (ETS1)?
Answer: Its binding signal is 1.21.

Question: What about the binding signal (SPDEF) of the same sequence?
Answer: The binding signal was 1.07.

Question: CTTCGG was tested. Which binding signal (GABPA) did it give?
Answer: The binding signal was 1.58.

Question: And the binding signal (ETS1)?
Answer: The binding signal was 1.42.

Question: How did the binding signal (GABPA) turn out when TGCTAA was run?
Answer: Its binding signal is 1.18.

Question: And the binding signal (ETS1)?
Answer: The binding signal was 1.24.

Question: How did the binding signal (GABPA) turn out when TTGGTG was run?
Answer: Its binding signal is 1.42.

Question: What about the binding signal (ETS1) of the same sequence?
Answer: The binding signal was 1.28.

Question: What about the binding signal (SPDEF) of the same sequence?
Answer: Its binding signal is 1.33.

Question: How did the binding signal (GABPA) turn out when TAATGC was run?
Answer: Its binding signal is 1.26.

Question: And the binding signal (ETS1)?
Answer: The binding signal was 1.22.

Question: What about the binding signal (SPDEF) of the same sequence?
Answer: Its binding signal is 1.17.

Question: CTAATT was tested. Which binding signal (GABPA) did it give?
Answer: Its binding signal is 1.33.

Question: What about the binding signal (ETS1) of the same sequence?
Answer: Its binding signal is 1.34.

Question: With CCTGGT as the sequence, how does the binding signal (GABPA) read?
Answer: Its binding signal is 1.4.

Question: And the binding signal (ETS1)?
Answer: Its binding signal is 1.4.

Question: For TTCTCG, which binding signal (GABPA) is on record?
Answer: The binding signal was 1.55.

Question: What about the binding signal (ETS1) of the same sequence?
Answer: Its binding signal is 1.41.

Question: With CAAAAT as the sequence, how does the binding signal (GABPA) read?
Answer: The binding signal was 1.2.

Question: And the binding signal (ETS1)?
Answer: Its binding signal is 1.23.

Question: What does the source list for TCGACT?
Answer: binding signal (GABPA): 1.3; binding signal (ETS1): 1.43

Question: What does the source list for CTTGGG?
Answer: binding signal (GABPA): 1.36; binding signal (ETS1): 1.22

Question: For CCTCCC, which binding signal (GABPA) is on record?
Answer: Its binding signal is 1.45.

Question: What about the binding signal (ETS1) of the same sequence?
Answer: The binding signal was 1.53.

Question: For GAATTT, which binding signal (GABPA) is on record?
Answer: Its binding signal is 1.21.

Question: And the binding signal (ETS1)?
Answer: Its binding signal is 1.33.

Question: CTTGAT was tested. Which binding signal (GABPA) did it give?
Answer: Its binding signal is 1.52.

Question: And the binding signal (ETS1)?
Answer: Its binding signal is 1.35.

Question: What does the source list for GAACCA?
Answer: binding signal (GABPA): 1.05; binding signal (ETS1): 1.03; binding signal (SPDEF): 0.975

Question: GATATA was tested. Which binding signal (GABPA) did it give?
Answer: The binding signal was 1.15.

Question: And the binding signal (ETS1)?
Answer: The binding signal was 1.07.

Question: What does the source list for GCGACT?
Answer: binding signal (GABPA): 1.13; binding signal (ETS1): 1.16

Question: For AAATTG, which binding signal (GABPA) is on record?
Answer: The binding signal was 1.26.

Question: And the binding signal (ETS1)?
Answer: Its binding signal is 1.31.

Question: CTCATT was tested. Which binding signal (GABPA) did it give?
Answer: The binding signal was 1.44.

Question: What about the binding signal (ETS1) of the same sequence?
Answer: Its binding signal is 1.54.

Question: What does the source list for GTTTAC?
Answer: binding signal (GABPA): 1.19; binding signal (ETS1): 1.09; binding signal (SPDEF): 1.12

Question: Which binding signal (GABPA) does the source give for ACTCTA here?
Answer: Its binding signal is 1.52.

Question: And the binding signal (ETS1)?
Answer: The binding signal was 1.46.

Question: For CTATCT, which binding signal (GABPA) is on record?
Answer: Its binding signal is 1.34.

Question: And the binding signal (ETS1)?
Answer: The binding signal was 1.36.

Question: What about the binding signal (SPDEF) of the same sequence?
Answer: Its binding signal is 1.3.

Question: Which binding signal (GABPA) does the source give for TTGCGG here?
Answer: The binding signal was 1.21.

Question: What about the binding signal (ETS1) of the same sequence?
Answer: Its binding signal is 1.29.

Question: What about the binding signal (SPDEF) of the same sequence?
Answer: The binding signal was 1.24.

Question: TTTGGT was tested. Which binding signal (GABPA) did it give?
Answer: The binding signal was 1.42.

Question: And the binding signal (ETS1)?
Answer: The binding signal was 1.47.

Question: How did the binding signal (GABPA) turn out when CATATT was run?
Answer: Its binding signal is 1.27.

Question: What about the binding signal (ETS1) of the same sequence?
Answer: The binding signal was 1.27.

Question: How did the binding signal (GABPA) turn out when TTTAGG was run?
Answer: Its binding signal is 1.11.

Question: And the binding signal (ETS1)?
Answer: Its binding signal is 1.13.

Question: Which binding signal (GABPA) does the source give for TCCTAT here?
Answer: Its binding signal is 1.58.

Question: What about the binding signal (ETS1) of the same sequence?
Answer: Its binding signal is 1.63.

Question: With GTAACA as the sequence, how does the binding signal (GABPA) read?
Answer: Its binding signal is 1.05.

Question: And the binding signal (ETS1)?
Answer: The binding signal was 1.13.

Question: What about the binding signal (SPDEF) of the same sequence?
Answer: Its binding signal is 1.14.

Question: With TGCTGA as the sequence, how does the binding signal (GABPA) read?
Answer: The binding signal was 1.07.

Question: What about the binding signal (ETS1) of the same sequence?
Answer: Its binding signal is 1.05.

Question: Which results are given for CCCCAT?
Answer: binding signal (GABPA): 1.26; binding signal (ETS1): 1.27

Question: With CCGGAA as the sequence, how does the binding signal (GABPA) read?
Answer: The binding signal was 4.9.

Question: And the binding signal (ETS1)?
Answer: Its binding signal is 5.16.

Question: Which binding signal (GABPA) does the source give for AGGTAT here?
Answer: The binding signal was 1.07.

Question: What about the binding signal (ETS1) of the same sequence?
Answer: The binding signal was 1.06.

Question: What about the binding signal (SPDEF) of the same sequence?
Answer: The binding signal was 1.12.

Question: With TACTAG as the sequence, how does the binding signal (GABPA) read?
Answer: Its binding signal is 1.07.

Question: And the binding signal (ETS1)?
Answer: Its binding signal is 1.11.

Question: GGAATT was tested. Which binding signal (GABPA) did it give?
Answer: The binding signal was 1.

Question: What about the binding signal (ETS1) of the same sequence?
Answer: Its binding signal is 1.12.

Question: And the binding signal (SPDEF)?
Answer: The binding signal was 1.16.

Question: ACTAAC was tested. Which binding signal (GABPA) did it give?
Answer: Its binding signal is 1.26.

Question: And the binding signal (ETS1)?
Answer: Its binding signal is 1.26.

Question: What about the binding signal (SPDEF) of the same sequence?
Answer: Its binding signal is 1.2.

Question: Which results are given for AATCGC?
Answer: binding signal (GABPA): 1.14; binding signal (ETS1): 1.09; binding signal (SPDEF): 0.997
